No constants are given. Whether binding was seen depends on the method and setting. In cells and extracts the contact can be indirect. A yes stands for co-enrichment or nearness to the bait. Other partners may have been found.

By UniProt entry, the sequences of proteins in these tests, tags left out.
UniProt P63104: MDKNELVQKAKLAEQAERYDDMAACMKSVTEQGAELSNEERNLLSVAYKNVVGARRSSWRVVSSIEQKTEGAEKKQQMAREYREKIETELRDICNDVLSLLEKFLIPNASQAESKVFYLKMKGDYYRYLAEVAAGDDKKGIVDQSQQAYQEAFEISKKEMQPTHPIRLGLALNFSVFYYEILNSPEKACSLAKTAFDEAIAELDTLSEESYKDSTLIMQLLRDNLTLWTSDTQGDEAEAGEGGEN

From publication doi:10.1101/2023.12.15.571360 come the findings set out here.

For the test, the target named is GST-14-3-3ζ (UniProt P63104). The test can be described thus: affinity purification with mass spectrometry.

B1: Dlgap2 (protein, UniProt Q8BJ42 1-1059)
chain: MGTAQVLPGILQKHCCILPDRNTESQCTLCGEPEEEEGGDLAQPGLSFPGPAEEDIDQQYSWSPTQHFNEERYSPAPRNMKGLTGSRNQPQLCAGHTCGLSPPDDCEHPHDHMHHGSDVRQPYLLSPAESCPMDHHRCSPRSSVHSECMMMPVMLGDHVSSSTFPRMHYSSHYDTRDDCAMSHTSTKVNRIPANLLDQFEKQLPLHRDGFHTLQYQRASAATEQRNESPGRIRHLVHSVQKLFTKSHSLEGSSKSNINGTKSDSRVDDHHQSHLSKHSKRSKSKERKPESKHKSGMSSWWSSDDNLDSDSTYRTPSVAHRHHMDHIPHCYPEALQSPFGDLSLKTSKSNNDVKCSACEGLALTPDTRYMKRSSWSTLTVSQAKEAYRKSSLNLDKPLVHPEIKPSLRPCHYLQVPQDDWGAYPTGGKEEEIPCRRMRSGSYIKAMGDEESGESDSSPKTSPTVAIRPEPLLKPIIQRPLGDHQTQSYLQAATEVPVGHSLNPSINYNSPKFRSRNQSYMRAVSTLSQASCVSQMSEAEVNGQFESVCESVFSEVESQAMDALDLPGCFRTRSHSYLRAIQAGYSQDDECIPVMTSSNMTSTIRSTAAVSYTNYKKTPPPVPPRTTSKPLISVTAQSSTESTQDAYQDSRAQRMSPWPQDSRGGLYNSMDSLDSNKAMNLALETAAAQRHAADTQSSSTRSIDKAVLASKAEELLKSRCSSIGVQDSEFPDHQPYPRSDVETATDSDTESRGLREYHSVGVQVEDEKRHGRFKRSNSVTAAVQADLELEGFPGHVSMEDKGLQFGSSFQRHSEPSTPTQYGALRTVRTQGLFSYREDYRTQVDTSTLPPPDPWLEPSLDTVETGRMSPCRRDGSWFLKLLHTETKRMEGWCKEMEREAEENDLLEDILGKIRSAVGSAQLLMSQKFQQFYWLCQQNMDPSAMPRPTSQDLAGYWDMLQLSVEDVSMKFDELHQLKLNDWKIIESPERKEERKIPPPIPKKPPKGKFPITREKSLDLPDRQRQEARRRLMAAKRAASFRQNSATERADSIEIYIPEAQTRL
modifications: phosphorylated; sites not shown (Table 1, Supplementary Tables 1 and 2)
Take B1: the binding result is on record as “binds”.

B2: Dclk1 (protein, UniProt Q9JLM8 1-756)
chain: MSFGRDMELEHFDERDKAQRYSRGSRVNGLPSPTHSAHCSFYRTRTLQTLSSEKKAKKVRFYRNGDRYFKGIVYAISPDRFRSFEALLADLTRTLSDNVNLPQGVRTIYTIDGLKKISSLDQLVEGESYVCGSIEPFKKLEYTKNVNPNWSVNVKTTSASRAVSSLATAKGGPSEVRENKDFIRPKLVTIIRSGVKPRKAVRILLNKKTAHSFEQVLTDITDAIKLDSGVVKRLYTLDGKQVMCLQDFFGDDDIFIACGPEKFRYQDDFLLDESECRVVKSTSYTKIASASRRGTTKSPGPSRRSKSPASTSSVNGTPGSQLSTPRSGKSPSPSPTSPGSLRKQRISQHGGSSTSLSSTKVCSSMDENDGPGEGDELGRRHSLQRGWRREESEEGFQIPATITERYKVGRTIGDGNFAVVKECIERSTAREYALKIIKKSKCRGKEHMIQNEVSILRRVKHPNIVLLIEEMDVPTELYLVMELVKGGDLFDAITSTSKYTERDASGMLYNLASAIKYLHSLNIVHRDIKPENLLVYEHQDGSKSLKLGDFGLATIVDGPLYTVCGTPTYVAPEIIAETGYGLKVDIWAAGVITYILLCGFPPFRGSGDDQEVLFDQILMGQVDFPSPYWDNVSDSAKELINMMLLVNVDQRFSAVQVLEHPWVNDDGLPENEHQLSVAGKIKKHFNTGPKPSSTAAGVSVIATTALDKERQVFRRRRNQDVRSRYKAQPAPPELNSESEDYSPSSSETVRSPNSPF
modifications: phosphorylated; sites not shown (Supplementary Table 2)
On to B2, for which the binding result is given as “binds”.
